Reference: PubChem BioAssay AID686937 (Drosophila RNAi Screening Center, 2013)
The screen tested about 23,000 reagents; this is a random part of those that have a named target and a result. 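Reduced-secretion tags in replicate 1 do not always agree with the z-scores; no criterion for assigning the tags was given.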 The numbers tell different reagents against one gene apart. A plus sign joins genes that one reagent is predicted to hit. Further read-outs or replicates are left out here. Not stated in the record: the amount of reagent.

Test: 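Knock-downs that reduce output of a secreted reporter enzyme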 (primary screen)
Cell system: Drosophila S2 cells expressing secreted horseradish peroxidase
Reagent: long dsRNA against Drosophila genes
Duration: about 5.5 days (5 days dsRNA, then 12 h reporter induction)
Conditions: reporter expression induced after 5 days of dsRNA, read 12 h later; inducer not stated
Measured: 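Chemiluminescent measurement of peroxidase in the medium 12 h after reporter induction, following 5 days of dsRNA, given as a z-score per plate; higher means more secretion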
Direction: z-score: higher = more reporter secreted into medium

gene | reagent no. | z-score, replicate 1 | z-score, replicate 2 | z-score, replicate 3
Nup44A (Nucleoporin at 44A) | 1 | -0.49 | -0.61 | –
Alp4 (Alkaline phosphatase 4) | 1 | -0.04 | 0.25 | –
CG42597 | 1 | -0.05 | 0.33 | –
CG13192 | 1 | 0.1 | 0.07 | –
PolD3 (DNA polymerase delta subunit 3) | 1 | -0.01 | 0.15 | –
CG18258 | 1 | 0.16 | 0.2 | –
CG31957 | 1 | -0.83 | 0.26 | –
Socs44A (Suppressor of Cytokine Signaling at 44A) | 1 | 0.27 | 0.27 | –
CG30054 | 1 | 0.21 | 0.38 | –
CG6441 | 1 | 0.36 | 0.34 | –
CG31870 | 1 | 0.23 | 0.28 | –
CG43098 | 1 | -0.09 | 0.08 | –
CG2574 | 1 | 0 | -0.31 | –
ema (endosomal maturation defective) | 1 | -0.55 | -0.23 | –
Targ3 (Terminal ADP-ribose protein glycohydrolase 3) | 1 | 0.77 | 0.19 | –
Ppcs (Phosphopantothenoylcysteine synthetase) | 1 | 0.34 | 0.37 | –
RpS30 (Ribosomal protein S30) | 1 | -2.29 | -3.25 | –
Frl (Formin-like) | 1 | 0.63 | 0.41 | –
Frl (Formin-like) | 2 | 0.13 | 0.09 | –
Frl (Formin-like) | 3 | -1.41 | 0.06 | 0.29
Pif1 (Pif1 DNA helicase) | 1 | -0.27 | -0.19 | –
slp1 (sloppy paired 1) | 1 | 0.18 | 0.36 | –
CG7950 + Rpp14a | 1 | 0.14 | -0.24 | –
CG34183 | 1 | 0.13 | 0.27 | –
Obp50a (Odorant-binding protein 50a) | 1 | -0.07 | -1.48 | –
RpS4 (Ribosomal protein S4) | 1 | -4.18 | -3.13 | –
Whamy (WHAMM and JMY related) | 1 | 0.1 | 0.44 | –
CG14538 (retired record) | 1 | 0.37 | 0.43 | –
AstC (Allatostatin C) | 1 | 0.03 | 0.26 | –
CG13071 | 1 | 0.08 | 0.12 | –
CG15044 | 1 | -0.19 | -0.81 | –
CG15044 | 2 | 0.27 | -0.4 | –
cN-IIIB (cytosolic 5'-nucleotidase IIIB) | 1 | 0.42 | 0.32 | –
CG32086 | 1 | 0.38 | 0.22 | –
mEFTs (mitochondrial translation elongation factor Ts) | 1 | 0.02 | -0.18 | –
CG11601 | 1 | 0.19 | 0.16 | –
CG5823 | 1 | 0.29 | 0.18 | –
CG30340 | 1 | -0.26 | – | –
ph-d (polyhomeotic distal) | 1 | -0.22 | 0.11 | –
l(2)34Fd (lethal (2) 34Fd) | 1 | 0.09 | 0.08 | –
CG8520 | 1 | 0.27 | 0.4 | –
Nrx-1 (Neurexin 1) | 1 | 0.26 | 0.28 | –
jef (jet fuel) | 1 | 0.54 | 0.31 | –
CG5334 | 1 | 0.05 | 0.38 | –
e(y)2b (enhancer of yellow 2b) | 1 | 0.09 | 0.42 | –
kin17 | 1 | -0.64 | -1.5 | –
LManIII (Lysosomal alpha-mannosidase III) | 1 | 0.35 | 0.26 | –
Prosbeta2R2 (Proteasome beta2 subunit-related 2) | 1 | 0.29 | 0.47 | –
CG5973 | 1 | 0.11 | 0.36 | –
GckIII (Germinal centre kinase III) | 1 | 0.21 | -0.56 | –
CG10185 | 1 | 0.21 | -0.38 | –
HUWE1 | 1 | 0.54 | 0.6 | –
tap (target of Poxn) | 1 | -0.53 | -0.01 | –
CG6426 | 1 | 0.37 | 0.69 | –
CG14034 | 1 | 0.33 | 0.19 | –
CG34217 | 1 | -0.17 | – | –
Sln (Silnoon) | 1 | 0.2 | 0.22 | –
zfh2 (Zn finger homeodomain 2) | 1 | -0.42 | -0.99 | –
CG42337 | 1 | 0.18 | -0.02 | –
CG42337 | 2 | -1.97 | -1.46 | –
CG14891 | 1 | 0.33 | 0.33 | –
Cog1 (Component of oligomeric golgi complex 1) | 1 | -0.61 | -0.36 | –
CG6415 | 1 | 0.27 | 0.28 | –
Cyp4ac2 (Cytochrome P450 4ac2) | 1 | 0.11 | 0.28 | –
CG43121 | 1 | 0.31 | 0.38 | –
CG12715 | 1 | 0.29 | 0.35 | –
CG11686 | 1 | -0.05 | 0.31 | –
Mvb12 (Multivesicular body subunit 12) | 1 | 0.42 | 0.52 | –
Arl4 (ADP ribosylation factor-like 4) | 1 | 0.29 | 0.38 | –
CG9759 | 1 | 0.39 | 0.42 | –
PolE4 (DNA polymerase epsilon subunit 4) | 1 | 0.28 | 0.36 | –
E(spl)mdelta-HLH (Enhancer of split mdelta, helix-loop-helix) | 1 | 0.48 | 0.35 | –
rho-5 (rhomboid-5) | 1 | 0.14 | 0.25 | 0.43
m-cup (mann-cup) | 1 | -0.01 | 0.06 | –
Sfp53D (Seminal fluid protein 53D) | 1 | -0.21 | 0.14 | –
Cyp12d1-d + Cyp12d1-p | 1 | 1.38 | 0.14 | –
Act5C (Actin 5C) | 1 | -0.13 | -0.63 | –
CG17919 | 1 | 0.21 | 0.14 | –
CG12811 | 1 | 0.51 | 0.53 | –
CG42246 | 1 | -0.27 | 0.83 | –
p-cup (presidents-cup) | 1 | -0.97 | -1.65 | –
CG11997 | 1 | 0.25 | 0.78 | –
